# In patent US20060089318A1, “Inhibitors of adp-ribosyl transferases, cyclases, and hydrolases” (priority 2002, published 2006):
# Amino acid sequences for entries named in this document (tags omitted). Residues count along the entry.
# UniProt P28907, 43-300 limits assumed: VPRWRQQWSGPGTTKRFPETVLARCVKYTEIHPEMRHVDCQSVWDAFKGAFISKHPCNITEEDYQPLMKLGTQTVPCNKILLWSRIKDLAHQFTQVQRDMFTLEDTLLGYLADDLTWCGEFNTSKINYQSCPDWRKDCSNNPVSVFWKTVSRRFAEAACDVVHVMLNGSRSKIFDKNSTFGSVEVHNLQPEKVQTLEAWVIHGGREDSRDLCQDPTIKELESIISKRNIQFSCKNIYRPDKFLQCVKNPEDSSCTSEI
# Certain results were filed several times, with different values. This list holds those alone. An entry can have further records. The values listed for one entry differ, and nothing given here explains why; they may come from other doses, times, organisms or constructs than stated.
# Target: human CD38 (Homo sapiens, UniProt P28907)
# Experiment: Competitive and slow-onset inhibition of CD38-catalyzed conversion of NGD+ to cGDPR (295 nm absorbance)
# Assay type: biochemical
# Details: 19° C.; fit to slow-onset equation; listed as 2
# Method: Determination of Ki and kon by competitive method. To 1 mL solutions of 50 mM potassium phosphate pH 7.2 and 100 μM NGD^+ containing, 50, 25, 12.5, and 6.25 and 0 μM inhibitor 1 was added 2 μL of 7 μM CD38. Reaction progress upon initiation by enzyme addition was monitored by measurement of […] absorbance. The initial slopes were used to determine the Ki value, and all points of the experiment were fit to the equation A(t)=vt+(b−v)(1−exp(−kt))/k+A0 where k is the observed rate constant, b is the initial rate, v is the final rate and A0 is the initial absorbance was used to evaluate kon.
# Determination of Competitive Inhibition by Initial Rates: The inhibitors 1-3 were evaluated for inhibition of CD38 enzymatic activity using a spectrophotometric assay. CD38 catalyzes the conversion of NGD^+ to cyclic-GDP ribose (cGDPR, Scheme 4) and product formation can be monitored by 295 nm absorbance measurement. […]
# Slow Phase Inhibition. […] The “slow-onset” absorbance curves could be fit using the equation At=vit+(vi−vf)(1−exp(−kt))/k+A0 where At is absorbance, vi is initial velocity, vf is final velocity, t is time in s, k is the rate of the slow onset process and A0 is absorbance of the sample at initial time. […] The rate constant for the slow phase could be obtained from the average value of k determined from the separate fits. […]
compound,measurement,value
"Cc1cc(C(N)=O)c[n+]([C@H]2C[C@H](O)[C@@H](CO)O2)c1 [inhibitor 2, β-5-methyl-nicotinamide-2′-deoxyriboside]",kon (rate constant of slow-onset phase of inhibition),0.0083±0.002 s^−1 and 0.008 s^−1
